Experimental data published in PMC4741653.
No constants are given. Whether binding was seen depends on the method and setting. Binding seen in cells or lysates may run through a third protein. Some binding calls cover weakened binding; strength is not graded here.

Amino acid sequences for entries named in this document (tags omitted).
UniProt Q15022: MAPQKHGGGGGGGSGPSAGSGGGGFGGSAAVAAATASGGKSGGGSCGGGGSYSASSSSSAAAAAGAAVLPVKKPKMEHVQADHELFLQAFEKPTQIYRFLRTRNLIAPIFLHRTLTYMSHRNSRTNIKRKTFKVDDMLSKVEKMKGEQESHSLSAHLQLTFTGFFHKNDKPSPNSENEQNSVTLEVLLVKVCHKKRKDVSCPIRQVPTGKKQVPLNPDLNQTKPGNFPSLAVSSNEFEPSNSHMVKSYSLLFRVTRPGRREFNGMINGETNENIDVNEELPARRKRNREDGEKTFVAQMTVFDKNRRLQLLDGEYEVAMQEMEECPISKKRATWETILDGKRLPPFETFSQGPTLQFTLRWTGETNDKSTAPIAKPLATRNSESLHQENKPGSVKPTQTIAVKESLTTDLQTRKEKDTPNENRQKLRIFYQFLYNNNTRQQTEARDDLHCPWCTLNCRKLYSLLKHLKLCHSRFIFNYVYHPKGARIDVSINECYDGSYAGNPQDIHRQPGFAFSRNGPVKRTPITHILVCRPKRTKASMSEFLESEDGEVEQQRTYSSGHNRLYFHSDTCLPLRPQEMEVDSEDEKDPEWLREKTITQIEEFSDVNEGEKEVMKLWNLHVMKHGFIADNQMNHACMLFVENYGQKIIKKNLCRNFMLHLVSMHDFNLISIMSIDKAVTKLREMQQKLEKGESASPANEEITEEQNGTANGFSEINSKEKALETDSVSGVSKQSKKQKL
UniProt P45973: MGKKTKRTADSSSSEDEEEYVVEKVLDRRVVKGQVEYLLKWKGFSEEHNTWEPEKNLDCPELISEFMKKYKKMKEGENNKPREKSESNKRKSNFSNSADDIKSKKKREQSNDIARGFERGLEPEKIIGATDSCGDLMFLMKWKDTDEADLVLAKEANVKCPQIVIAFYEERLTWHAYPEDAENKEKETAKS

Tests used:
[1] = target: T1, SUV39H1 (human (endogenous in Hep3B)) (UniProt O43463); assay: co-IP; Hep3B lysates in RIRP lysis buffer; 2 μg antibody (anti-SUV39h1, anti-H3K27Ac or anti-SUZ12) for 4 hours at 4°C, protein G/A-plus agarose beads overnight at 4°C; washes in 50 mM TrisCl pH 7.6, 150 mM NaCl, 0.1% NP-40, 1 mM EDTA; Western blot of the precipitate; IgG IP as negative control; cells transfected with pCMV-miR, pCMV-miR675, pCMV-miR675 plus pcDNA3.1-HP1α, pGFP-V-RS or pGFP-V-RS-miR675
T1 sequence: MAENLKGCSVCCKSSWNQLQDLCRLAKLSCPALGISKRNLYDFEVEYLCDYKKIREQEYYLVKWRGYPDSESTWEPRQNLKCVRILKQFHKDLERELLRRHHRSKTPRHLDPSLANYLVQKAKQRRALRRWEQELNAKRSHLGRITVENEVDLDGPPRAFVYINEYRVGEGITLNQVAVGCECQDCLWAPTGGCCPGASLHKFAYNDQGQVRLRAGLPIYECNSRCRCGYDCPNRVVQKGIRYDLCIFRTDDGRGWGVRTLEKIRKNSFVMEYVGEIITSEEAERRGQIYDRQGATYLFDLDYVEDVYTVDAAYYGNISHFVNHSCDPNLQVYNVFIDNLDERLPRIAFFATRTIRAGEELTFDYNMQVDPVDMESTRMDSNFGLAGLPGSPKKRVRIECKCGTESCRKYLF

[2] = target: SUZ12 (human (endogenous in Hep3B)) (UniProt Q15022); assay: as above

binding [1]: binds
binding [2]: binds
Substance: heterochromatin protein 1 isoform HP1α (from UniProt P45973 1-191)
